# Source: paper PMC7064531
# These are yes or no findings as the source states them, for the method shown. Binding seen in cells or lysates may run through a third protein. Some results given as binding are weak or reduced against the parent protein; the word gives no strength.
# Molecular target: proteasome ATPase Rpt3 (endogenous) (human (endogenous in HCT116)) (UniProt P43686)
# Test: co-IP; Rpt3 antibody immunoprecipitation from lysates of parental HCT116 cells (mock, scrambled or E6AP siRNA, empty vector or myc-hRpn10 constructs); 1% Triton X-100 buffer, overnight 4 °C; immunoblot
substance,measurement,value
endogenous hRpn10 (full-length protein in WT HCT116 cells) (from UniProt P55036 1-377),binding,binds
